The values below come from article PMC8483321.

Amino acid sequences for entries named in this document (tags omitted). A change or cut given only in a name is not applied to a line headed by its entry. Chains listed by the source or under a name are the forms on record and can include a tag or linker. Residues count along the entry.
UniProt Q92560: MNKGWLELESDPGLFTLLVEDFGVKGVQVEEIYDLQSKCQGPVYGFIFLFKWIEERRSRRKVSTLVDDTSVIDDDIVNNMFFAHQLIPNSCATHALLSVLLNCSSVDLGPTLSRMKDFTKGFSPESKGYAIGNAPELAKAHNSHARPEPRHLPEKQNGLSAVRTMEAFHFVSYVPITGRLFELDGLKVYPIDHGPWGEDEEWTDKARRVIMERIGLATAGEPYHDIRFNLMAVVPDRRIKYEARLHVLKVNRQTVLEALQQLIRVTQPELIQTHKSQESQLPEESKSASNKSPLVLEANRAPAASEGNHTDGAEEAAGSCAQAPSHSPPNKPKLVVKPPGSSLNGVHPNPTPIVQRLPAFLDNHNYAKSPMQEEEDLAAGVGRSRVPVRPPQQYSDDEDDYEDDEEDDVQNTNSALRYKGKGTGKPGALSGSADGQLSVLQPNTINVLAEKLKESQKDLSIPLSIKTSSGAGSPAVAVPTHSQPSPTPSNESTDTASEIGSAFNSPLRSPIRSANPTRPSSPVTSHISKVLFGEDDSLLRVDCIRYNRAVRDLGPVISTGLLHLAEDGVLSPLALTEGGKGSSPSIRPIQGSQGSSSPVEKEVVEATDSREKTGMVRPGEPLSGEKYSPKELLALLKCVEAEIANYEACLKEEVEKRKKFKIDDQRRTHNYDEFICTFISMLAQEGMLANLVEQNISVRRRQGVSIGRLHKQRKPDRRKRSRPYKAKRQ
GFP-BAP1 2–670: residues 2-670 of Q92560
GFP-BAP1 Δ671–710 (Q92560, form named): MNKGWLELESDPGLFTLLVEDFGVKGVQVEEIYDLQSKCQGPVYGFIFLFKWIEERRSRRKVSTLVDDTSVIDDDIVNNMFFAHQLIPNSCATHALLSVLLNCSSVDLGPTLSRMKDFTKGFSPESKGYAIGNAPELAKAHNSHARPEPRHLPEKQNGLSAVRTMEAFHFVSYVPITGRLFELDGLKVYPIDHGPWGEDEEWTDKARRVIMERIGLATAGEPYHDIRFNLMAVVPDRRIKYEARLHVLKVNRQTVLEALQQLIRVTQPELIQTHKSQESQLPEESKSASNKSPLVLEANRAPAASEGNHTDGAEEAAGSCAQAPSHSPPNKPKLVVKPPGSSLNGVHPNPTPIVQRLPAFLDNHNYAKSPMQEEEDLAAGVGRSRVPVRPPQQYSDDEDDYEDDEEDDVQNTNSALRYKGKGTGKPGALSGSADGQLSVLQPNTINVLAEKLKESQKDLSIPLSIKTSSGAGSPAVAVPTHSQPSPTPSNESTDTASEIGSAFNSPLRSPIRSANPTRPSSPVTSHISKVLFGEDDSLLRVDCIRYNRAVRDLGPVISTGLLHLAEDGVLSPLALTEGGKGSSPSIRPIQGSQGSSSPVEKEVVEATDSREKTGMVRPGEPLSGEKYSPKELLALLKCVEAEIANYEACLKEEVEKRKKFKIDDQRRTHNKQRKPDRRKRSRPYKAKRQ
UniProt Q8IWZ3: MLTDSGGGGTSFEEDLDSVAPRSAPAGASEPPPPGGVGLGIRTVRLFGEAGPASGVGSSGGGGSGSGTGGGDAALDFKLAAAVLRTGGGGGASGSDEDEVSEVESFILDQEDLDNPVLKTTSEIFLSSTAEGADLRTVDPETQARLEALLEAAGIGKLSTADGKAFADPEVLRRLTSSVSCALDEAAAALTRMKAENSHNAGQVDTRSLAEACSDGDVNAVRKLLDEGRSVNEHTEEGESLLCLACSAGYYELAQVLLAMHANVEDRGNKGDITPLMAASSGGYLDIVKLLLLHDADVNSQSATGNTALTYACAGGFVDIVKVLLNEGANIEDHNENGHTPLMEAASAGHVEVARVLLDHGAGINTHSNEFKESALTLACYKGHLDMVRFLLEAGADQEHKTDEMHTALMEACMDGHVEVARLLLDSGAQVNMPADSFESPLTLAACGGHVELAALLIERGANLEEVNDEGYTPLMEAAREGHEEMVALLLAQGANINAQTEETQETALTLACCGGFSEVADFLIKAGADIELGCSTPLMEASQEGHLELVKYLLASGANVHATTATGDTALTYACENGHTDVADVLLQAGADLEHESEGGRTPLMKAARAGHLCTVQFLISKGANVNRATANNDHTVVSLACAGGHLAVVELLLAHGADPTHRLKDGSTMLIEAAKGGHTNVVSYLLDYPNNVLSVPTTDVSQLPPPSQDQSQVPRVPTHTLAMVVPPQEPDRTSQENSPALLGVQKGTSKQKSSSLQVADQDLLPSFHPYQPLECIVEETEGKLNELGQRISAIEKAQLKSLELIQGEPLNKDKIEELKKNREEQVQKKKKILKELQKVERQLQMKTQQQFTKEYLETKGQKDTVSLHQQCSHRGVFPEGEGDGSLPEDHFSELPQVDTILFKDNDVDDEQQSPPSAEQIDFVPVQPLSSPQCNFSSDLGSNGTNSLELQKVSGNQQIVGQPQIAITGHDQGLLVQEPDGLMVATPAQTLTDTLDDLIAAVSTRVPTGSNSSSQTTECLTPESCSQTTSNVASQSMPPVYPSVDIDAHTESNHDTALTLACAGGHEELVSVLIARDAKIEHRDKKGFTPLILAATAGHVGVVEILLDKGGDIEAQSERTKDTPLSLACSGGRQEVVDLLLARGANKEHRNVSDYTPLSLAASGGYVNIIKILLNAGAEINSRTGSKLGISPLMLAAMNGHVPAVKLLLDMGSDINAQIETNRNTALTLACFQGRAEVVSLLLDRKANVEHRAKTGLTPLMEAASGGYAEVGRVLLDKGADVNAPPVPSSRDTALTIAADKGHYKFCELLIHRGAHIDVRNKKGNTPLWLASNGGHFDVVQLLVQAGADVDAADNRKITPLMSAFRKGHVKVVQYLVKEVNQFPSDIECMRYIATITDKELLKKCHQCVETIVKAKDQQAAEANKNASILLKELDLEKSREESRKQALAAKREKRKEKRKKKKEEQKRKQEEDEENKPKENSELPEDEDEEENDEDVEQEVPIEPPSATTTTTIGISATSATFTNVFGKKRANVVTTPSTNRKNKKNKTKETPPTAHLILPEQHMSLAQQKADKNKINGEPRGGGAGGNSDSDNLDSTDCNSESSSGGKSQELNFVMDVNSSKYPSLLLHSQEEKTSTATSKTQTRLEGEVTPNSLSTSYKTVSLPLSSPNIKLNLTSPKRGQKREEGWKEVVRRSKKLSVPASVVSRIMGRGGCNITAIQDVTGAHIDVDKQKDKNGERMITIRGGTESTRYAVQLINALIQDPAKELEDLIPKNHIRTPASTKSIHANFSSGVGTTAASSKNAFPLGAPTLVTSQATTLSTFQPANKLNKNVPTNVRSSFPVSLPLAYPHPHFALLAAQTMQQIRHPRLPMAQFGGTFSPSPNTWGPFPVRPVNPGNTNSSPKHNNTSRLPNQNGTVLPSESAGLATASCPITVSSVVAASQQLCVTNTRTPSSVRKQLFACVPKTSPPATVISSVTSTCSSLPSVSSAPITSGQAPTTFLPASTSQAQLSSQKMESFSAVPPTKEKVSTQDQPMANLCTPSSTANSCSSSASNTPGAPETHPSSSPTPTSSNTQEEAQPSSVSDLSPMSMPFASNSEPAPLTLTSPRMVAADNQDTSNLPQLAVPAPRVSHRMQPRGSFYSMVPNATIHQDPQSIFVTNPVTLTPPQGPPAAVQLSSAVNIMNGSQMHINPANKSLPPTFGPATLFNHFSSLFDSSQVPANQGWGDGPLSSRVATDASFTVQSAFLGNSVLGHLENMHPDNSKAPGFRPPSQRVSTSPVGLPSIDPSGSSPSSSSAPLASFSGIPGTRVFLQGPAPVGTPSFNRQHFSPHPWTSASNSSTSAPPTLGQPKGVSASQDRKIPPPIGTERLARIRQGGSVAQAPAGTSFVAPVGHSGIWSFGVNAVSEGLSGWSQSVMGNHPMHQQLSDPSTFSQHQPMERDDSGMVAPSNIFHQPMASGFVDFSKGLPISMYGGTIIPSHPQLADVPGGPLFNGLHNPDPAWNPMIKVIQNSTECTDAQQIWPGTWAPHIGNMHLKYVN
UniProt Q07021, residues 74-282: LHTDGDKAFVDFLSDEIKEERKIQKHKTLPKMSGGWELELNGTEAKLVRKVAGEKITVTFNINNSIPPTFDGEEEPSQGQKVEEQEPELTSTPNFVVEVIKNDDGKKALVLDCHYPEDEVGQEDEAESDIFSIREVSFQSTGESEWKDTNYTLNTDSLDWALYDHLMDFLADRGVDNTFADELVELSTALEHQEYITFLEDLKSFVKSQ
UniProt Q13185: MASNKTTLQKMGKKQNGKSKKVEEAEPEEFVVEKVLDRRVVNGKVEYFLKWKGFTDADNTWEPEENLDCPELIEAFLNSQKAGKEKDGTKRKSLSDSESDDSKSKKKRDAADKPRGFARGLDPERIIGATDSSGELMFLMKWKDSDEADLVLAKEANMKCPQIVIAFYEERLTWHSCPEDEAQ
UniProt P61923: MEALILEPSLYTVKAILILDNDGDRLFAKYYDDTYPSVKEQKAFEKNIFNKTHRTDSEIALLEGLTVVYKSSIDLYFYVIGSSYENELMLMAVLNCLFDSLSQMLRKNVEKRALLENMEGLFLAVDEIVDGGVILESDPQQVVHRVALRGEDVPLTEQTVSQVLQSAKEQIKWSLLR
UniProt Q14974: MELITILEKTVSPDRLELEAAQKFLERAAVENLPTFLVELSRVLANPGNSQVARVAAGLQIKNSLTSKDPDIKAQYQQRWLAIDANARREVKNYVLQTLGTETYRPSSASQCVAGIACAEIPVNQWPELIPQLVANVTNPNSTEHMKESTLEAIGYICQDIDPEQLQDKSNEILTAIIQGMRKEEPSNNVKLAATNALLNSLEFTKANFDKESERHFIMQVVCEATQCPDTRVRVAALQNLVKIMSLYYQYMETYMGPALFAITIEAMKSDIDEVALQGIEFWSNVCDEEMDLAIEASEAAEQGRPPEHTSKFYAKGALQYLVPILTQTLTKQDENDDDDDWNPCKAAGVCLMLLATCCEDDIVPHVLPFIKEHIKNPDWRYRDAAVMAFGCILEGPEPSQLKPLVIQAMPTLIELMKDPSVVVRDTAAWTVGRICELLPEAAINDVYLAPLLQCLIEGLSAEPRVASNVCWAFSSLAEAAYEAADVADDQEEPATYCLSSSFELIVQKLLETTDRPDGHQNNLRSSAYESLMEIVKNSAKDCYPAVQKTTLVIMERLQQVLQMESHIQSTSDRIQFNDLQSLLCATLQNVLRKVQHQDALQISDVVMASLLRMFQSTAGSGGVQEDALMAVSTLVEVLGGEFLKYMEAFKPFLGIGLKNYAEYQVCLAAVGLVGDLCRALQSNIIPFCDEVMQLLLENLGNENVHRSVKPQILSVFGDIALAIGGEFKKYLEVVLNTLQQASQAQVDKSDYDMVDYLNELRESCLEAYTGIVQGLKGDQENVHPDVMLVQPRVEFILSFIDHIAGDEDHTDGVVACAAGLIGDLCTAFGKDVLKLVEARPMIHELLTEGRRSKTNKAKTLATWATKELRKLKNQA
UniProt P06748: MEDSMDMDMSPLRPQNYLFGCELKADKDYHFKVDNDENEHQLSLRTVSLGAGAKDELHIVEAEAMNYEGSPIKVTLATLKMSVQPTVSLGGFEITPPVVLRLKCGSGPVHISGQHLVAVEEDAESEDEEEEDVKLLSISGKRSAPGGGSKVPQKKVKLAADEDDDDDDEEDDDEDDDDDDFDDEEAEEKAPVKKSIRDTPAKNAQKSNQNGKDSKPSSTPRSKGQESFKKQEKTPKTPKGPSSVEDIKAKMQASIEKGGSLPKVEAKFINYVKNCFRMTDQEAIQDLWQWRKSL
UniProt Q9Y265: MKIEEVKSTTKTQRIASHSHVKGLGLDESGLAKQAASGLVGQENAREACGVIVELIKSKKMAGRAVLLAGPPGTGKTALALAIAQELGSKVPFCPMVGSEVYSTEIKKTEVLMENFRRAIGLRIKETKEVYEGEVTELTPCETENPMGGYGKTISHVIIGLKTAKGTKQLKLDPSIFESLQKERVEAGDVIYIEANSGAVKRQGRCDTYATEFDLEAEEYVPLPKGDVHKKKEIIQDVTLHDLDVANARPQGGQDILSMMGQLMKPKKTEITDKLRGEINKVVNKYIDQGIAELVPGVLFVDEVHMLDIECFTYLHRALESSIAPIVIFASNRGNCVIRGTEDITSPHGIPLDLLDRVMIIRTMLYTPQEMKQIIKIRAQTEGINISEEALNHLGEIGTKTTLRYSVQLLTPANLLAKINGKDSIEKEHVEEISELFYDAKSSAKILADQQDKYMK

These are yes or no findings as the source states them, for the method shown. In cells and extracts the contact can be indirect. Here binding means that the protein was enriched with, or labelled near, the bait; the list need not be complete. For part of these data: A no says only that the protein was not detected with the bait.

In assay [1] the target is (N)GFP-FLAG-BAP1 fusion protein (BRCA1-associated protein 1, full-length) (UniProt Q92560). Put plainly: affinity purification with mass spectrometry; GFP-Trap agarose beads, 20 min at 4°C with ethidium bromide, washes in C300 buffer; cytoplasmic extracts of HeLa FRT ΔBAP1 (clone 4D2) lines expressing GFP-BAP1 full-length, 2–670 or Δ671–710; GFP or mock immunoprecipitation.

Assay [2] shares this target. The experiment in a line: affinity purification with mass spectrometry; GFP-Trap agarose beads, 20 min at 4°C with ethidium bromide, washes in C300 buffer; nuclear extracts of HeLa FRT ΔBAP1 (clone 4D2) lines expressing GFP-BAP1 full-length, 2–670 or Δ671–710; GFP or mock immunoprecipitation.
Assay [3] concerns the target GFP-BAP1 2–670 (UniProt Q92560). The experiment in a line: affinity purification with mass spectrometry; GFP-Trap agarose beads, 20 min at 4°C with ethidium bromide, washes in C300 buffer; cytoplasmic extracts of HeLa FRT ΔBAP1 (clone 4D2) lines expressing GFP-BAP1 full-length, 2–670 or Δ671–710; GFP or mock immunoprecipitation.
Assay [4] deals with GFP-BAP1 Δ671–710 (UniProt Q92560). Described as above.
For assay [5], the target named is GFP-BAP1 2–670 (UniProt Q92560). The experiment in a line: affinity purification with mass spectrometry; GFP-Trap agarose beads, 20 min at 4°C with ethidium bromide, washes in C300 buffer; nuclear extracts of HeLa FRT ΔBAP1 (clone 4D2) lines expressing GFP-BAP1 full-length, 2–670 or Δ671–710; GFP or mock immunoprecipitation.
For assay [6], the target named is GFP-BAP1 Δ671–710 (UniProt Q92560). The assay is described as above.
Assay [7] has as its target (N)GFP-FLAG-BAP1 fusion protein (BRCA1-associated protein 1, full-length) (UniProt Q92560). The assay is described as above. This is another data set of the same source.
Assay [8] shares this target. Put plainly: affinity purification with mass spectrometry; GFP-Trap agarose beads, 20 min at 4°C with ethidium bromide, washes in C300 buffer; nuclear extract of HeLa FRT cells (endogenous BAP1 present) induced with doxycycline to express GFP-BAP1; against mock precipitation.

Regarding ANKHD1 (from UniProt Q8IWZ3 1-2542), the binding result in assay [1] is recorded as “binds”; in assay [2], “no binding (only in the nuclear extract)”.

For the molecule ANKRD17 (from UniProt O75179 1-2603), the binding result in assay [1] is on record as “binds”; in assay [2], “no binding (only in the nuclear extract)”.

Consider C1QBP (from UniProt Q07021 74-282), for which the figures for the binding entry in assay [1] and in assay [2] were “binds” and “no binding (only in the nuclear extract)”, respectively.

CBX3 (from UniProt Q13185 1-183): the binding result in assay [1] was “binds”; in the assay with GFP-BAP1 2–670 [3], “binds”; with GFP-BAP1 Δ671–710 [4] it was “binds”; in assay [2] it was “no binding (only in the nuclear extract)”; in the assay with GFP-BAP1 2–670 [5], “no binding (only in the nuclear extract)”; in the assay with GFP-BAP1 Δ671–710 [6], “binds”.

As to COPB1 (from UniProt P53618 1-953), the binding entry was “binds” in assay [1] and “no binding (only in the nuclear extract)” in assay [2].

In the case of COPG1 (from UniProt Q9Y678 1-874), the figures for the binding entry in assay [1] and in assay [2] were “binds” and “no binding (only in the nuclear extract)”, respectively.

Take COPZ1 (from UniProt P61923 1-177): the values for the binding entry in assay [1] and in assay [2] were “binds” and “no binding (only in the nuclear extract)”, respectively.

“HUWE1 (from UniProt Q7Z6Z7 1-4374) (enzyme)”: the binding result in assay [1] was “binds”; in assay [2], “no binding (only in the nuclear extract)”.

Turning to KPNB1 (from UniProt Q14974 1-876), the values for the binding result in assay [1] and in assay [2] were “binds” and “no binding (only in the nuclear extract)”, respectively.

As for NPM1 (from UniProt P06748 1-294), the figures for the binding entry in assay [1] and in assay [2] were “binds” and “no binding (only in the nuclear extract)”, respectively.

For the molecule RUVBL1 (from UniProt Q9Y265 1-456), the binding entry in assay [1] is recorded as “binds”; in the assay with GFP-BAP1 2–670 [3] it was “binds”; in the assay with GFP-BAP1 Δ671–710 [4], “binds”; in assay [2], “no binding (only in the nuclear extract)”; with GFP-BAP1 2–670 [5], “no binding (only in the nuclear extract)”; with GFP-BAP1 Δ671–710 [6] it was “no binding (only in the nuclear extract)”.

For TNPO1 (from UniProt Q92973 1-898), the results for the binding result in assay [1] and in assay [2] were “binds” and “no binding (only in the nuclear extract)”, respectively.

As for VCP (from UniProt P55072 1-806), the binding entry in assay [1] was “binds”; in assay [2], “no binding (only in the nuclear extract)”.

B1: HCFC2 (protein, UniProt Q9Y5Z7 1-792)
chain: MAAPSLLNWRRVSSFTGPVPRARHGHRAVAIRELMIIFGGGNEGIADELHVYNTATNQWFLPAVRGDIPPGCAAHGFVCDGTRILVFGGMVEYGRYSNELYELQASRWLWKKVKPHPPPSGLPPCPRLGHSFSLYGNKCYLFGGLANESEDSNNNVPRYLNDFYELELQHGSGVVGWSIPVTKGVVPSPRESHTAVIYCKKDSGSPKMYVFGGMCGARLDDLWQLDLETMSWSKPETKGTVPLPRSLHTASVIGNKMYIFGGWVPHKGENTETSPHDCEWRCTSSFSYLNLDTTEWTTLVSDSQEDKKNSRPRPRAGHCAVAIGTRLYFWSGRDGYKKALNSQVCCKDLWYLDTEKPPAPSQVQLIKATTNSFHVKWDEVSTVEGYLLQLSTDLPYQAASSDSSAAPNMQGVRMDPHRQGSNNIVPNSINDTINSTKTEQPATKETSMKNKPDFKALTDSNAILYPSLASNASNHNSHVVDMLRKNEGPHTSANVGVLSSCLDVRTVIPETSVSSTVSSTQTMVTQQTIKTESSSTNGAVVKDETSLTTFSTKSEVDETYALPATKISRVETHATATPFSKETPSNPVATVKAGERQWCDVGIFKNNTALVSQFYLLPKGKQSISKVGNADVPDYSLLKKQDLVPGTGYRFRVAAINGCGIGPFSKISEFKTCIPGFPGAPSAVRISKNVEGIHLSWEPPTSPSGNILEYSAYLAIRTAQIQDNPSQLVFMRIYCGLKTSCIVTAGQLANAHIDYTSRPAIVFRISAKNEKGYGPATQVRWLQGNNKKAPLN
Turning to B1, the binding entry (in assay [7]; in assay [1]; with GFP-BAP1 2–670 [3]) was “binds” in each case.

B2: NAP1L5 (protein, UniProt Q96NT1 1-182)
chain: MADSENQGPAEPSQAAAAAEAAAEEVMAEGGAQGGDCDSAAGDPDSAAGQMAEEPQTPAENAPKPKNDFIESLPNSVKCRVLALKKLQKRCDKIEAKFDKEFQALEKKYNDIYKPLLAKIQELTGEMEGCAWTLEGEEEEEEEYEDDEEEGEDEEEEEAAAEAAAGAKHDDAHAEMPDDAKK
For the molecule B2, the binding entry in assay [7] is reported as “no binding (only in the nuclear extract)”; in assay [1] it was “binds”.

B3: ARCN1 (protein, UniProt P48444 1-511)
chain: MVLLAAAVCTKAGKAIVSRQFVEMTRTRIEGLLAAFPKLMNTGKQHTFVETESVRYVYQPMEKLYMVLITTKNSNILEDLETLRLFSRVIPEYCRALEENEISEHCFDLIFAFDEIVALGYRENVNLAQIRTFTEMDSHEEKVFRAVRETQEREAKAEMRRKAKELQQARRDAERQGKKAPGFGGFGSSAVSGGSTAAMITETIIETDKPKVAPAPARPSGPSKALKLGAKGKEVDNFVDKLKSEGETIMSSSMGKRTSEATKMHAPPINMESVHMKIEEKITLTCGRDGGLQNMELHGMIMLRISDDKYGRIRLHVENEDKKGVQLQTHPNVDKKLFTAESLIGLKNPEKSFPVNSDVGVLKWRLQTTEESFIPLTINCWPSESGNGCDVNIEYELQEDNLELNDVVITIPLPSGVGAPVIGEIDGEYRHDSRRNTLEWCLPVIDAKNKSGSLEFSIAGQPNDFFPVQVSFVSKKNYCNIQVTKVTQVDGNSPVRFSTETTFLVDKYEIL
As for B3, the binding entry in assay [7] is listed as “no binding (only in the nuclear extract)”; in assay [8], “no binding (only in the nuclear extract)”; in assay [1] it was “binds”.
